Values of other authors in patent US11565231B2, “Substrates, peptide arrays, and methods” (Vibrant Holdings, LLC, priority 2012, dated 2023).
For at least one compound, name, drawing or mass did not settle the structure.

Details: cited from earlier work

For `O=S(=O)(O)C(F)(F)F` [triflic acid], the Ka is given as 8e+14 mol/kg.
